Measured values as given in paper PMC6487577.
Results are given in words; binding and its absence hold for the method and conditions named.

What was measured:
TRIM33 RING (aa 1–208) = TRIM33 RING (aa 1–208) (UniProt Q9UPN9); assay: SEC-MALS; SEC-MALLS, Superdex 75 10/300 GL, 25 mM Hepes pH 7.5, 150 mM NaCl, 0.5 mM TCEP, 3 mM NaN3, 25°C, 100 μl samples at multiple concentrations; both purified
TRIM24 RING (aa 1–153) = TRIM24 RING (aa 1–153) (UniProt O15164); assay: as above

binding (TRIM33 RING (aa 1–208)) | binding (TRIM24 RING (aa 1–153)) | Binder
no binding |  | TRIM33 RING (aa 1–208) (domain or fragment, UniProt Q9UPN9 1-208) MAENKGGGEAESGGGGSGSAPVTAGAAGPAAQEAEPPLTAVLVEEEEEEGGRAGAEGGAAGPDDGGVAAASSGSAQAASSPAASVGTGVAGGAVSTPAPAPASAPAPGPSAGPPPGPPASLLDTCAVCQQSLQSRREAEPKLLPCLHSFCLRCLPEPERQLSVPIPGGSNGDIQQVGVIRCPVCRQECRQIDLVDNYFVKDTSEAPSS
 | no binding | TRIM24 RING (aa 1–153) (domain or fragment, UniProt O15164 1-153) MEVAVEKAVAAAAAASAAASGGPSAAPSGENEAESRQGPDSERGGEAARLNLLDTCAVCHQNIQSRAPKLLPCLHSFCQRCLPAPQRYLMLPAPMLGSAETPPPVPAPGSPVSGSSPFATQVGVIRCPVCSQECAERHIIDNFFVKDTTEVPS
